For this series, the target named is T1, Bmara-FLAG (Bombyx mori) (UniProt A0A8R1WJM2).
T1 sequence (looked up, limits assumed): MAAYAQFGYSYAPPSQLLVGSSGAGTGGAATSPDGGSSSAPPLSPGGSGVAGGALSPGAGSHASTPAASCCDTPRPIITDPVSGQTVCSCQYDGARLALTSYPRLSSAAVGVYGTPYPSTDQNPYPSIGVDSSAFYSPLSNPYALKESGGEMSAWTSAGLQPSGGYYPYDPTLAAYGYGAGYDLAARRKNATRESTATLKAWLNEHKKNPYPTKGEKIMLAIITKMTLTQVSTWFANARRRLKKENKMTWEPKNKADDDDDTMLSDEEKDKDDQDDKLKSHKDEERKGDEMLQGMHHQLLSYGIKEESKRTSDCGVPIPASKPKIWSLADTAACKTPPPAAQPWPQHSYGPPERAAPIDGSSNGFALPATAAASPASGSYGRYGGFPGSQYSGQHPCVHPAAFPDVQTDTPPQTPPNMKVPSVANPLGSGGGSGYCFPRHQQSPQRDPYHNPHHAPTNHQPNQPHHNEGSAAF
Description: pull-down. As to conditions: 10 mM Mg acetate, 5 mM EGTA, anti-FLAG Western blot, Pull-down: 10 mM HEPES pH 7.6, 100 mM K glutamate, 80 mM KCl, 2.5 mM DTT, 3.5% glycerol, 0.001% NP-40, 4 h 4 C, protein in an extract, protein details: C-terminal FLAG, label: 5' biotin. For orientation: In western blotting, separated proteins are transferred to a membrane and probed.

For at least one entry, the source does not settle the construct or the ends of the probe. Results from cells or extracts need not show a direct contact. Tags and fusion partners may be left off the protein sequences shown.

Take “TTCAGTCCACGGCTGTCTTTCAACACGGA (double strand)”: the binding result is listed as “binds”.

For the origin of these results see PMC7472703, “DNA methylation suppresses chitin degradation and promotes the wing development by inhibiting Bmara-mediated chitinase expression in the silkworm, Bombyx mori”.
